Data as given in PubChem BioAssay AID504764 (Drosophila RNAi Screening Center, 2011)
The screen tested about 22,000 reagents; shown is an unselected part of those with a known target gene and a result. Of all reagents, 403 (1.9%) were called active. 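Unnormalised raw counts per well; ratio z-scores behind the hit calls and whether each hit raises or lowers signal are not deposited.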 Names joined by + are all predicted targets of the reagent. No sequences are given here. Not given: the amount of reagent.

Assay: 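Knock-downs that raise or lower a Notch target reporter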 (primary screen)
Cell system: Drosophila Kc167 cells
Reagents: long dsRNA against Drosophila genes
Duration: about 5 days (4 days dsRNA, then 24 h after transfection)
Conditions: transfection of constitutively active membrane-tethered Notch lacking the extracellular domain, read 24 h later
Detection: 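Light from a Notch-responsive E(spl)m3 luciferase reporter under active Notch, with control-promoter and no-Notch reporter wells to normalise; raw counts from paired wells a and b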
Direction: induced reporter light, run 1, well a and induced reporter light, run 1, well b: higher = more light from the Notch target reporter with active Notch; control promoter light, run 1, well a and control promoter light, run 1, well b: higher = more light from the viral control promoter (cell number, transfection, viability); uninduced reporter light, run 1, well a: higher = more light from the Notch target reporter without active Notch
Call rule: 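Hit if the duplicate-averaged log2 ratio of induced to control-promoter light gives a plate-wise z beyond ±2, or induced to uninduced beyond ±1.8; weak-control or discordant-duplicate wells dropped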
Meaning of the calls: active = modifier hit (raised or lowered Notch signal); inactive = not a hit

Knock-down of CG10163 [DRSC09710] came out at: induced reporter light, run 1, well a = 2.62e5; induced reporter light, run 1, well b = 1.65e5; control promoter light, run 1, well a = 2.22e5; control promoter light, run 1, well b = 2.15e5; uninduced reporter light, run 1, well a = 11520; inactive.
After knock-down of CG15743 [DRSC19709], the screen gave induced reporter light, run 1, well a = 89820; induced reporter light, run 1, well b = 84650; control promoter light, run 1, well a = 1.14e5; control promoter light, run 1, well b = 1.33e5; uninduced reporter light, run 1, well a = 7005; inactive.
With knock-down of CG32085 [DRSC10138], the screen gave induced reporter light, run 1, well a = 1.36e5; induced reporter light, run 1, well b = 1.28e5; control promoter light, run 1, well a = 1.75e5; control promoter light, run 1, well b = 1.31e5; uninduced reporter light, run 1, well a = 6620; inactive.
With knock-down of CG32085 [DRSC10139], the record shows induced reporter light, run 1, well a = 1.13e5; induced reporter light, run 1, well b = 1.32e5; control promoter light, run 1, well a = 1.35e5; control promoter light, run 1, well b = 1.26e5; uninduced reporter light, run 1, well a = 3750; inactive.
Knock-down of CG32085 [DRSC10576] gave: induced reporter light, run 1, well a = 1.67e5; induced reporter light, run 1, well b = 1.80e5; control promoter light, run 1, well a = 2.89e5; control promoter light, run 1, well b = 2.21e5; uninduced reporter light, run 1, well a = 6430; inactive.
For CG3280 (retired record) [DRSC10356], the values are induced reporter light, run 1, well a = 1.49e5; induced reporter light, run 1, well b = 1.41e5; control promoter light, run 1, well a = 1.73e5; control promoter light, run 1, well b = 1.48e5; uninduced reporter light, run 1, well a = 9060; inactive.
Depletion of CG15435 [DRSC00450] came out at: induced reporter light, run 1, well a = 1.26e5; induced reporter light, run 1, well b = 88735; control promoter light, run 1, well a = 1.10e5; control promoter light, run 1, well b = 1.05e5; uninduced reporter light, run 1, well a = 8645; inactive.
With knock-down of mRpS28 (mitochondrial ribosomal protein S28) [DRSC06939] the results were induced reporter light, run 1, well a = 33205; induced reporter light, run 1, well b = 32145; control promoter light, run 1, well a = 28325; control promoter light, run 1, well b = 31565; uninduced reporter light, run 1, well a = 3815; inactive.
Against Nepl6 (Neprilysin-like 6) [DRSC03242], the entry reads induced reporter light, run 1, well a = 1.55e5; induced reporter light, run 1, well b = 1.69e5; control promoter light, run 1, well a = 2.74e5; control promoter light, run 1, well b = 2.72e5; uninduced reporter light, run 1, well a = 16915; inactive.
Against gudu [DRSC02820], the entry reads induced reporter light, run 1, well a = 78435; induced reporter light, run 1, well b = 52740; control promoter light, run 1, well a = 80620; control promoter light, run 1, well b = 59815; uninduced reporter light, run 1, well a = 3585; inactive.
Knock-down of Fbw5 (F-box and WD repeat domain containing 5) [DRSC03146] came out at: induced reporter light, run 1, well a = 87340; induced reporter light, run 1, well b = 82535; control promoter light, run 1, well a = 95115; control promoter light, run 1, well b = 92890; uninduced reporter light, run 1, well a = 3980; inactive.
trbl (tribbles) [DRSC11901] gave induced reporter light, run 1, well a = 1.96e5; induced reporter light, run 1, well b = 1.17e5; control promoter light, run 1, well a = 1.42e5; control promoter light, run 1, well b = 1.59e5; uninduced reporter light, run 1, well a = 9040; inactive.
Silencing of Grip91 (Gamma-tubulin ring protein 91) [DRSC20249] resulted in: induced reporter light, run 1, well a = 1.98e5; induced reporter light, run 1, well b = 1.96e5; control promoter light, run 1, well a = 2.40e5; control promoter light, run 1, well b = 2.73e5; uninduced reporter light, run 1, well a = 14625; inactive.
Knock-down of Lcp65Ag3 + Lcp65Ag2 + Lcp65Ag1 [DRSC11214] resulted in: induced reporter light, run 1, well a = 1.35e5; induced reporter light, run 1, well b = 1.27e5; control promoter light, run 1, well a = 1.51e5; control promoter light, run 1, well b = 1.92e5; uninduced reporter light, run 1, well a = 8165; inactive.
Against Lcp65Ag3 + Lcp65Ag2 + Lcp65Ag1 [DRSC11215] the deposit lists induced reporter light, run 1, well a = 1.50e5; induced reporter light, run 1, well b = 1.81e5; control promoter light, run 1, well a = 2.68e5; control promoter light, run 1, well b = 1.41e5; uninduced reporter light, run 1, well a = 7130; inactive.
For CG32452 [DRSC11581], the values are induced reporter light, run 1, well a = 2.44e5; induced reporter light, run 1, well b = 1.80e5; control promoter light, run 1, well a = 3.24e5; control promoter light, run 1, well b = 2.10e5; uninduced reporter light, run 1, well a = 16890; inactive.
After knock-down of CG14007 [DRSC02339] the results were induced reporter light, run 1, well a = 1.51e5; induced reporter light, run 1, well b = 1.20e5; control promoter light, run 1, well a = 1.48e5; control promoter light, run 1, well b = 1.40e5; uninduced reporter light, run 1, well a = 11105; inactive.
Against ninaA (neither inactivation nor afterpotential A) [DRSC00830], the entry reads induced reporter light, run 1, well a = 2.10e5; induced reporter light, run 1, well b = 2.07e5; control promoter light, run 1, well a = 2.42e5; control promoter light, run 1, well b = 2.58e5; uninduced reporter light, run 1, well a = 17770; inactive.
Silencing of CG8563 [DRSC10996] gave: induced reporter light, run 1, well a = 1.73e5; induced reporter light, run 1, well b = 1.52e5; control promoter light, run 1, well a = 1.84e5; control promoter light, run 1, well b = 1.60e5; uninduced reporter light, run 1, well a = 8750; inactive.
After knock-down of CG1532 [DRSC20516], the screen gave induced reporter light, run 1, well a = 1.08e5; induced reporter light, run 1, well b = 88000; control promoter light, run 1, well a = 96775; control promoter light, run 1, well b = 43100; uninduced reporter light, run 1, well a = 7678; inactive.
For CG34231 [DRSC05323], the entry reads induced reporter light, run 1, well a = 2.33e5; induced reporter light, run 1, well b = 2.66e5; control promoter light, run 1, well a = 2.73e5; control promoter light, run 1, well b = 2.71e5; uninduced reporter light, run 1, well a = 20840; inactive.
mei-S332 (meiotic from via Salaria 332) [DRSC04704] showed induced reporter light, run 1, well a = 1.10e5; induced reporter light, run 1, well b = 1.30e5; control promoter light, run 1, well a = 74270; control promoter light, run 1, well b = 85705; uninduced reporter light, run 1, well a = 7405; inactive.
After knock-down of HP5 (Heterochromatin protein 5) [DRSC19773] the results were induced reporter light, run 1, well a = 2.18e5; induced reporter light, run 1, well b = 1.90e5; control promoter light, run 1, well a = 2.64e5; control promoter light, run 1, well b = 2.30e5; uninduced reporter light, run 1, well a = 12845; inactive.
Against nonA (no on or off transient A) [DRSC20357] the deposit lists induced reporter light, run 1, well a = 56825; induced reporter light, run 1, well b = 48055; control promoter light, run 1, well a = 54625; control promoter light, run 1, well b = 53460; uninduced reporter light, run 1, well a = 10220; inactive.
